# Assay results from the supplement of paper PMC11348887.
# Where a name gives a salt, the structure may show the parent alone. ± gives the standard deviation of the averaged measurements. This is one part of the list. Small differences around the control level are noise. Where a SMILES comes first, the peptide text is derived from it. The star is where a group is joined. Cbz = O=C(OCc1ccccc1)*; CH2F = FC*
# Assays:
# Conditions in all cases: 5 µM; treatment: days 7-14 after plating, readout day 21
# [1] = tested on: hPSC-derived cortical neurons (WA09); assay: nucleus area z-score vs screen plate; higher = larger nuclei (more mature)
# [2] = tested on: hPSC-derived cortical neurons (WA09); assay: total neurite length per nucleus (MAP2) z-score; higher = more neurite growth
# [3] = tested on: hPSC-derived cortical neurons (WA09); assay: nucleus roundness z-score vs screen plate; higher = rounder nuclei (more mature)
# [4] = tested on: hPSC-derived cortical neurons (WA09); assay: KCl-induced FOS+/EGR-1+ double-positive nuclei fraction z-score (KCl minus unstimulated); higher = stronger activity-induced IEG response
Compound,nucleus area z-score [1],total neurite length per nucleus (z-score) [2],nucleus roundness z-score [3],KCl-induced FOS+/EGR-1+ double-positive nuclei fraction z-score [4]
O=C(NC(Cc1cc(=O)[nH]c2ccccc12)C(=O)O)c1ccc(Cl)cc1 (centres undefined) [Rebamipide],0.503,-0.826,-0.36,0.196
COC(=O)C[C@H](NC(=O)[C@H](C)NC(=O)[C@@H](NC(=O)OCc1ccccc1)C(C)C)C(=O)CF [Z-VAD-FMK (Caspase Inhibitor VI)] (Cbz-Val-Ala-Asp(OMe)-CH2F),0.0877,1.46,1.06,-0.103
COc1cc2ncc(-c3ccccc3)nc2cc1OC [Tyrphostin AG 1296],0.155,0.471,0.382,3
CCN(CC)CCNC(C(=O)OCCC(C)C)c1ccccc1 (centres undefined) [Camylofin Chlorhydrate],2.44,-0.317,-1.12,0.564
CC(C)NC(=O)COc1cccc(-c2nc(Nc3ccc4[nH]ncc4c3)c3ccccc3n2)c1,-1.49,-2.19,-2.3,-0.393
COc1ccc(-n2c(SCCCN3C(=O)c4cccc5cccc(c45)C3=O)nnc2-c2ccncc2)cc1,-0.362,-0.283,0.262,0.413
COc1cc(OC)c(NC(=O)Nc2cc(C)on2)cc1Cl,-0.417,0.46,0.509,1.94
Nc1ccc2cc3ccc(N)cc3nc2c1 [Proflavine Hemisulfate],-8.25,-1.94,-10.5,5.4
CCN(CC)CCOC(=O)c1ccc(N)cc1Cl [Chloroprocaine HCl],2.55,-1.07,-0.498,0.642
CC(C)(C)CC(C)(C)c1ccc(OCCOCC[N+](C)(C)Cc2ccccc2)cc1 [Benzethonium Chloride],-13.4,-4.18,-8.14,-0.512
S=c1nc[nH]c2nc[nH]c12 [6-Mercaptopurine (6-MP) Monohydrate],-0.0811,0.297,0.0249,0.00615
C=C[C@]1(C)C[C@@H](OC(=O)CSC(C)(C)CNC(=O)[C@H](N)C(C)C)[C@]2(C)[C@H](C)CC[C@]3(CCC(=O)[C@H]32)[C@@H](C)[C@@H]1O [Valnemulin HCl],-0.387,0.221,-0.849,0.906
O=C1O[C@H]([C@@H](O)CO)C(O)=C1O [Vitamin C],-0.242,1.24,1.72,2.91
COc1cc2c(cc1OC)-c1cc3ccc(OC)c(OC)c3c[n+]1CC2 [Palmatine chloride],-0.196,-1.45,-2.75,-1.03
CCCc1nn(C)c2c(=O)[nH]c(-c3cc(S(=O)(=O)N4CCN(C)CC4)ccc3OCC)nc12 [Sildenafil],2.31,0.685,-0.0355,0.438
CC(=O)c1cc2c(o1)C(=O)c1ccccc1C2=O [Napabucasin],0.0391,0.0943,0.734,3.82
Oc1cc(O)cc(/C=C/c2ccc(O)c(O)c2)c1 [Piceatannol],-0.134,-0.435,0.473,-0.618
COc1ccc([C@]2(C#N)CC[C@@H](C(=O)O)CC2)cc1OC1CCCC1 [Cilomilast],-0.832,0.705,-0.904,-0.866
O=C(CCCN1CCN(c2ccccn2)CC1)c1ccc(F)cc1 [Azaperone],-0.144,0.463,0.648,1.15

# An excerpt of these results, with bars between the fields.
Compound | nucleus area z-score [1] | total neurite length per nucleus (z-score) [2] | nucleus roundness z-score [3] | KCl-induced FOS+/EGR-1+ double-positive nuclei fraction z-score [4]
S=c1nc[nH]c2nc[nH]c12 [6-Mercaptopurine (6-MP) Monohydrate] | -0.0811 | 0.297 | 0.0249 | 0.00615
COc1cc2c(cc1OC)-c1cc3ccc(OC)c(OC)c3c[n+]1CC2 [Palmatine chloride] | -0.196 | -1.45 | -2.75 | -1.03

# Remaining list, next part:

Compound,nucleus area z-score [1],total neurite length per nucleus (z-score) [2],nucleus roundness z-score [3],KCl-induced FOS+/EGR-1+ double-positive nuclei fraction z-score [4]
O=C1N=C(O)NC1(c1ccccc1)c1ccccc1 [Phenytoin sodium],0.475,-0.0247,0.604,1.1
CCNC(=O)CCC/C=C\C[C@@H]1[C@@H](/C=C/[C@@H](O)CCc2ccccc2)[C@H](O)C[C@@H]1O [Bimatoprost],0.389,-0.185,1.09,1.48
Nc1nc(Cl)nc2c1ncn2[C@@H]1O[C@H](CO)[C@@H](O)[C@@H]1F [Clofarabine],-10.2,-3.65,-11.5,-0.594
C[C@H](N[C@@H](CCc1ccccc1)C(=O)O)C(=O)N1CCC[C@H]1C(=O)O [Enalaprilat Dihydrate],1.08,0.0034,0.131,-0.602
CCOC(=O)CCNc1cc(N2CCc3ccccc3CC2)nc(-c2ccccn2)n1,-0.423,0.133,-1.37,0.272
COc1ccc(-c2coc3cc(O)cc(O)c3c2=O)cc1 [Biochanin A],0.789,-0.0651,-1.77,-0.0126
Cc1c(C(=O)NN2CCCCC2)nn(-c2ccc(Cl)cc2Cl)c1-c1ccc(Cl)cc1 [Rimonabant],-0.00982,0.39,0.642,2.37
C[C@H]1O[C@@H](Oc2c(-c3cc(O)c(O)c(O)c3)oc3cc(O)cc(O)c3c2=O)[C@@H](O)[C@@H](O)[C@@H]1O [Myricitrin],0.519,0.864,0.463,0.365
CCCCCN(C)CCC(O)(P(=O)(O)O)P(=O)(O)O [Ibandronate sodium],1.52,0.00763,-0.135,-0.344
CCS(=O)(=O)c1cccc(-c2cc(C(=O)NC3CCN(C)CC3)c(C)c3[nH]c4ncc(C)cc4c23)c1,-18,-5.86,-14.8,-0.93
OC(c1cc(-c2ccc(Cl)cc2)nc2ccccc12)C1CCCCN1 (centres undefined) [Vacquinol-1],-15.1,-5.95,-10.6,-0.627
CC(=O)O/N=C1/C(c2c(O)[nH]c3cc(Br)ccc23)=Nc2ccccc21 [BIO-acetoxime],-0.783,-1.44,-1.3,-0.41
CN1CCN(c2ccc3nc(-c4c(N)c5c(F)cccc5[nH]c4=O)[nH]c3c2)CC1 [Dovitinib (TKI-258) Dilactic Acid],-7.39,-2.7,-4.92,-0.995
CCCCOc1c(C(=O)c2c(F)cc(C)cc2F)c[nH]c2nncc1-2,2.45,-0.796,-0.898,-0.227
COc1ccc(CN2CCN(C(c3ccc(F)cc3)c3ccc(F)cc3)CC2)c(OC)c1OC [Lomerizine HCl],-1.36,-1.12,-2.1,-1.21
N#Cc1ccc2[nH]cc(CCCCN3CCN(c4ccc5oc(C(N)=O)cc5c4)CC3)c2c1 [Vilazodone HCl],-1.61,-0.709,0.182,-0.429
O=C(O)c1ccc(C=C2SC(=S)N(c3cccc(C(F)(F)F)c3)C2=O)cc1,0.326,0.793,0.306,0.602
CC(C)(C)c1cc(/C=C(\C#N)C(N)=S)cc(C(C)(C)C)c1O [Tyrphostin AG 879],0.351,0.677,0.331,1.52
CN1CCN(c2ccc(-c3ccncc3-c3cc(F)c(O)c(F)c3)cc2)CC1,-1.04,-1.04,-0.777,-0.189

Compound,nucleus area z-score [1],total neurite length per nucleus (z-score) [2],nucleus roundness z-score [3],KCl-induced FOS+/EGR-1+ double-positive nuclei fraction z-score [4]
C=CC(=O)Nc1cccc(Nc2nc(Nc3ccc(Oc4ccnc(C(=O)NC)c4)cc3)ncc2F)c1,0.217,0.293,-0.133,-0.00235
O=C1c2cccc(O)c2C(=O)c2c(O)cc(CO)cc21 [Aloe-emodin],0.00514,0.00733,0.272,1.51
Cc1onc(-c2ccccc2Cl)c1C(=O)N[C@@H]1C(=O)N2[C@@H]1SC(C)(C)[C@@H]2C(=O)O [Cloxacillin Sodium],0.209,0.303,0.661,-0.668
CC[C@H](Nc1ncnc2[nH]cnc12)c1nc2cccc(F)c2c(=O)n1-c1ccccc1 [CAL-101 (Idelalisib_ GS-1101)],-0.42,0.25,0.449,1.41
O=C(O)c1ccc(O)c2ncccc12,-1.65,-0.557,1.16,3.06
CN(C)CCOc1ccc(/C(=C(/CCCl)c2ccccc2)c2ccccc2)cc1 [Toremifene Citrate],-2.22,-1.37,-0.386,1.36
O=c1c(-c2ccc(O)cc2)coc2c([C@@H]3O[C@H](CO)[C@@H](O)[C@H](O)[C@H]3O)c(O)ccc12 [Puerarin],-0.45,0.614,-0.125,0.667
Nc1[nH]nc2nnc(-c3c(-c4ccccc4)nn4ccccc34)cc12,0.638,1.98,1.26,1.19
COc1cc([C@@H]2c3cc4c(cc3[C@@H](O[C@@H]3O[C@@H]5CO[C@@H](C)O[C@H]5[C@H](O)[C@H]3O)[C@H]3COC(=O)[C@H]23)OCO4)cc(OC)c1O [Etoposide],-0.64,0.651,1.44,0.359
CC[C@H]1OC(=O)[C@H](C)[C@@H](O[C@H]2C[C@@](C)(OC)[C@@H](O)[C@H](C)O2)[C@H](C)[C@@H](O[C@@H]2O[C@H](C)C[C@H](N(C)C)[C@H]2O)[C@](C)(O)C[C@@H](C)CN(C)[C@H](C)[C@@H](O)[C@]1(C)O [Azithromycin],-0.805 ± 0.66,-0.169 ± 0.17,-0.104 ± 0.66,0.308 ± 1.1
CC(C)n1nc(-c2cc3cc(O)ccc3[nH]2)c2c(N)ncnc21,-1.37,-2.42,-3.75,-1.07
CN1CCN(c2ccc3nc(-c4c(N)c5c(F)cccc5[nH]c4=O)[nH]c3c2)CC1 [Dovitinib (TKI258) Lactate],-13.3,-4.84,-11.6,-0.89
Nc1nc(=O)c2c([nH]1)NCC(CNc1ccc(C(=O)N[C@@H](CCC(=O)O)C(=O)O)cc1)N2C=O (some centres undefined) [Leucovorin Calcium Pentahydrate],-0.212,0.309,0.685,-0.306
O=C(Nc1ccccc1)c1ccccc1O [Salicylanilide],0.257,0.442,0.261,0.053
CC(C)c1noc(N2CCC(COc3ccc(-c4ccc(S(C)(=O)=O)cc4)nc3)CC2)n1,-0.144,0.555,0.558,0.326
CCN[C@H]1CN(CCCOC)S(=O)(=O)c2sc(S(N)(=O)=O)cc21 [Brinzolamide],0.567,-0.194,0.581,0.439
CCC[S+]([O-])c1ccc2[nH]c(NC(=O)OC)nc2c1 (centres undefined) [Albendazole Oxide],0.168,-0.659,-0.3,2.6
N#Cc1c(Oc2ccc(F)c(NC(=O)Cc3cccc(C(F)(F)F)c3)c2)ccc2nc(NC(=O)C3CC3)sc12,0.681,0.703,0.623,-1.17
